This test relates to P388 leukemia ip, CD2F1 mice, survival T/C. Put plainly: NCI In Vivo Anticancer Drug Screen. Data for tumor model P388 Leukemia (intraperitoneal) in CD2F1 (CDF1) mice. To be noted: T/C endpoint: median survival time, higher T/C = longer survival.
Setting [1] is: dose: 240.0 mg/kg/injection, schedule: Q01DX005 (ip), vehicle: Klucel (hydroxypropylcellulose) (HPC).
Setting [2] is: dose: 200.0 mg/kg/injection, schedule: Q01DX005 (ip), vehicle: Klucel (hydroxypropylcellulose) (HPC).
Setting [3] is: dose: 100.0 mg/kg/injection, schedule: Q01DX009 (ip), vehicle: saline.
The mark [4] stands for this setting: dose: 200.0 mg/kg/injection, schedule: Q01DX009 (ip), vehicle: saline.
Setting [5] is: dose: 100.0 mg/kg/injection, schedule: Q04DX003 (ip), vehicle: saline.
Where [6] appears, read: dose: 120.0 mg/kg/injection, schedule: Q01DX005 (ip), vehicle: saline.
Where [7] appears, read: dose: 240.0 mg/kg/injection, schedule: Q01DX005 (ip), vehicle: saline.
Setting [8] is: dose: 25.0 mg/kg/injection, schedule: Q01DX005 (ip), vehicle: water.
Where [9] appears, read: dose: 200.0 mg/kg/injection, schedule: Q01DX005 (ip), vehicle: saline + Tween-80 + alcohol.

Our source for the survivor count and T/C values is PubChem BioAssay AID330 (DTP/NCI, 2004).

The list shows only some results of the screen, not a fair sample: it is rich in T/C values a quarter to a half above the control, in often repeated tests (any T/C) and in doses without a T/C. Other doses and runs of a compound stand elsewhere. T/C is the treated group as % of the vehicle group. Some entries give survivors of the animals treated and no T/C: the source holds a T/C of zero for them, seemingly a mark for toxic or unscored doses. Some doses without a T/C left all or most animals alive at the check, yet need not have been tolerated: the source hardly ever lists a survival T/C far under the control, and the zero likely stands for such cases as well. Survivors were counted at the toxicity check, usually on the fifth day, unless a day is given; later deaths do not show. Schedule codes are those of the source, read here as Q, the interval in days (D) or hours (H), X, the number of doses. Some entries hold several experiments; the values are given in rising order. Some structures stand for samples that the source files as different forms (salt, stereo form or complex); doses refer to the form tested. Where survival is the endpoint, the PubChem record calls one and a half times the control and up active, and a quarter to a half above the control has no call in these data; cut-offs in other NCI protocols can differ. Some T/C values carry the count of animals alive at the toxicity check (mostly the fifth day); where none is given, no animal had died by that day.

With `Nc1nc(N)c(N2CCN(Cc3ccccc3)CC2)c(Cl)n1`, the survivor count runs as follows: (dose: 120.0 mg/kg/injection, schedule: Q01DX005 (ip), vehicle: Klucel (hydroxypropylcellulose) (HPC)) 6 of 6; under setting [1], 3 of 6.
On to `O=C(Nc1ccc(-c2ccc(NC(=O)C34CC5CC(CC(C5)C3)C4)cc2)cc1)C12CC3CC(CC(C3)C1)C2`, for which the survivor count runs as follows: (dose: 50.0 mg/kg/injection, schedule: Q01DX005 (ip), vehicle: Klucel (hydroxypropylcellulose) (HPC)) 5 of 6; under setting [2], 3 of 6.
`O=C1CS/C(=N/C(=O)Nc2ccc(Cl)cc2)N1`: the survivor count by setting is: (dose: 100.0 mg/kg/injection, schedule: Q04DX002 (ip), vehicle: Klucel (hydroxypropylcellulose) (HPC)) 6 of 6; (dose: 200.0 mg/kg/injection, schedule: Q04DX002 (ip), vehicle: Klucel (hydroxypropylcellulose) (HPC)) 6 of 6.
Take `CC(C)NCC(=O)c1ccc(O)c(O)c1`: the T/C is 125 and 127 % of control under setting [3]; 127 and 129 % of control under setting [4]; 136 % of control (dose: 264.0 mg/kg/injection, schedule: Q01DX009 (ip), vehicle: saline with Tween-80); 127 % of control (dose: 400.0 mg/kg/injection, schedule: Q01DX009 (ip), vehicle: saline with Tween-80). In addition, the survivor count is 2 of 6 and 3 of 6 (dose: 400.0 mg/kg/injection, schedule: Q01DX009 (ip), vehicle: saline); 2 of 6 (dose: 600.0 mg/kg/injection, schedule: Q01DX009 (ip), vehicle: saline with Tween-80); 0 of 6 (dose: 600.0 mg/kg/injection, schedule: Q01DX009 (ip), vehicle: saline).
`COc1ccc(Oc2cc3c(cc2OC)CCN(C)C3)cc1`: the survivor count under setting [3] is reported as 2 of 6 and the survivor count under setting [4] is 0 of 6.
In the case of `NC1=NCc2c(sc3c2CCCC3)N1`, the survivor count (dose: 100.0 mg/kg/injection, schedule: Q01DX005 (ip), vehicle: Klucel (hydroxypropylcellulose) (HPC)) is recorded as 0 of 6 and the survivor count under setting [2] is 1 of 6.
For the compound `CNC(=O)OCc1c(COC(=O)NC)c(C(F)(F)F)n2c1CCC2`, where the note is “dose: 200.0 mg/kg/injection, schedule: Q01DX009 (ip), vehicle: Klucel (hydroxypropylcellulose) (HPC)”, the survivor count is on record as 5 of 6.
As to `CNc1nc(NC)nc(N(C)C=O)n1`, the survivor count (dose: 100.0 mg/kg/injection, schedule: Q01DX009 (ip), vehicle: saline with Tween-80) is 5 of 6.
For `CCN(CC)CCOCCOC1(C)CCC(C(C)C)CC1` (stereo unspecified), the survivor count (dose: 200.0 mg/kg/injection, schedule: Q01DX005 (ip), vehicle: suspension in saline) is recorded as 0 of 6.
On to `CC1(C)OC(=O)C(=CN(C2CCCCC2)C2CCCCC2)C(=O)O1`, for which, under setting [1], the survivor count was 6 of 6.
Take `[Cl][Ru]([Cl])([Cl])([Cl])([Cl])[Cl]`: the T/C by setting is: (dose: 12.5 mg/kg/injection, schedule: Q04DX003 (ip), vehicle: water) 129 % of control; (dose: 25.0 mg/kg/injection, schedule: Q04DX003 (ip), vehicle: saline) 136 % of control; (dose: 25.0 mg/kg/injection, schedule: Q04DX003 (ip), vehicle: water) 138 % of control; (dose: 50.0 mg/kg/injection, schedule: Q04DX003 (ip), vehicle: saline) 127 % of control; (dose: 50.0 mg/kg/injection, schedule: Q04DX003 (ip), vehicle: water) 138 % of control; under setting [5], 127 % of control. The survivor count reads like this: (dose: 100.0 mg/kg/injection, schedule: Q04DX003 (ip), vehicle: water) 3 of 6; (dose: 200.0 mg/kg/injection, schedule: Q04DX003 (ip), vehicle: saline) 3 of 3; (dose: 200.0 mg/kg/injection, schedule: Q04DX003 (ip), vehicle: water) 0 of 6; (dose: 400.0 mg/kg/injection, schedule: Q04DX003 (ip), vehicle: saline) 3 of 3.
Consider `CC(CN(C)C)C(/C=C/c1ccccc1)=N\Nc1ccccc1` (stereo unspecified), for which the survivor count by setting is: under setting [6], 0 of 6; under setting [7], 0 of 6.
On to `CN1CCC(CNc2ccccc2)CC1`, for which the survivor count runs as follows: (dose: 30.0 mg/kg/injection, schedule: Q01DX005 (ip), vehicle: saline) 0 of 6; (dose: 60.0 mg/kg/injection, schedule: Q01DX005 (ip), vehicle: saline) 0 of 6; under setting [6], 0 of 6; under setting [7], 0 of 6.
Take `CCN(CC)CCn1[nH]c2c3ccc(=O)cc3sc3c(NCCN)ccc1c32`: the survivor count under setting [8] is 1 of 6 and 3 of 6.
For the compound `O=CNC(Cc1ccccc1N(CCCl)CCCl)C(=O)O` (stereo unspecified), the T/C (dose: 2.5 mg/kg/injection, schedule: Q04DX003 (ip), vehicle: water) is 125 % of control. For the same compound, under “dose: 40.0 mg/kg/injection, schedule: Q04DX003 (ip), vehicle: other”, the survivor count was 3 of 6.
In the case of `COc1ccc(C(C)c2cc(N=O)c(OC)cc2O)cc1` (stereo unspecified), the survivor count (dose: 100.0 mg/kg/injection, schedule: Q01DX005 (ip), vehicle: saline with Tween-80) is 6 of 6 and the survivor count (dose: 200.0 mg/kg/injection, schedule: Q01DX005 (ip), vehicle: saline with Tween-80) is recorded as 6 of 6.
Consider `CCN1CCc2cccc3c2C1c1ccccc1CC3` (stereo unspecified), for which, under “dose: 200.0 mg/kg/injection, schedule: Q01DX001 (ip), vehicle: saline with Tween-80”, the survivor count is 2 of 6.
As for `CCCCCCNC(C)C`, where the note is “dose: 200.0 mg/kg/injection, schedule: Q01DX005 (ip), vehicle: saline”, the survivor count was 0 of 6.
In the case of `CNC(=S)C#N`, the T/C (dose: 100.0 mg/kg/injection, schedule: Q01DX005 (ip), vehicle: saline + Tween-80 + alcohol) is 130 % of control. Also, under setting [9], the T/C was 125 % of control and the survivor count was 0 of 6.
For `CCCOC1=C(N2CC2)C(=O)C(OCCC)=C(N2CC2)C1=O`, the T/C is 126 % of control (dose: 1.33 mg/kg/injection, schedule: Q01DX009 (ip), vehicle: saline with Tween-80); 135 % of control (dose: 2.0 mg/kg/injection, schedule: Q01DX009 (ip), vehicle: saline with Tween-80); 145 % of control (dose: 2.66 mg/kg/injection, schedule: Q01DX009 (ip), vehicle: saline with Tween-80); 136 % of control (dose: 12.5 mg/kg/injection, schedule: Q01DX009 (ip), vehicle: saline with Tween-80). In addition, the survivor count (dose: 25.0 mg/kg/injection, schedule: Q01DX009 (ip), vehicle: saline with Tween-80) was 3 of 6.
`NNC(=O)CC(N)=O`: under setting [5], the survivor count is recorded as 6 of 6.
Turning to `CNC(=O)OCc1c(C)oc(-c2ccccc2)c1COC(=O)NC`, the survivor count is, setting by setting: (dose: 100.0 mg/kg/injection, schedule: Q01DX009 (ip), vehicle: distilled water + Tween-80) 6 of 6; (dose: 200.0 mg/kg/injection, schedule: Q01DX009 (ip), vehicle: distilled water + Tween-80) 6 of 6.
For `NC(CNC(=O)CBr)C(=O)O` (stereo unspecified), the T/C is, setting by setting: (dose: 12.5 mg/kg/injection, schedule: Q01DX005 (ip), vehicle: water) 130, 137, 142 % of control; under setting [8], 135, 141, 148 % of control; (dose: 50.0 mg/kg/injection, schedule: Q01DX005 (ip), vehicle: water) 140, 145, 147 % of control [5 of 6 alive]. Also, the survivor count is 2 of 6 and 4 of 6 (dose: 100.0 mg/kg/injection, schedule: Q01DX005 (ip), vehicle: water); 0 of 6 (dose: 200.0 mg/kg/injection, schedule: Q01DX005 (ip), vehicle: water).
Take `CC1=CC(C)=C(C#N)C2=S=C(c3ccccc3)C(=O)N12`: the survivor count (dose: 50.0 mg/kg/injection, schedule: Q01DX005 (ip), vehicle: saline with Tween-80) is recorded as 5 of 5.
